Measured values published in article PMC10765375, “Crystal structure and enzymology of Solanum tuberosum inositol tris/tetrakisphosphate kinase 1 (StITPK1)” (Biochemistry, 2023).

Protein sequences, listed by entry. Tags and fused reporters are not part of them. Residues count along the entry.
UniProt A4H2J0, 1-365: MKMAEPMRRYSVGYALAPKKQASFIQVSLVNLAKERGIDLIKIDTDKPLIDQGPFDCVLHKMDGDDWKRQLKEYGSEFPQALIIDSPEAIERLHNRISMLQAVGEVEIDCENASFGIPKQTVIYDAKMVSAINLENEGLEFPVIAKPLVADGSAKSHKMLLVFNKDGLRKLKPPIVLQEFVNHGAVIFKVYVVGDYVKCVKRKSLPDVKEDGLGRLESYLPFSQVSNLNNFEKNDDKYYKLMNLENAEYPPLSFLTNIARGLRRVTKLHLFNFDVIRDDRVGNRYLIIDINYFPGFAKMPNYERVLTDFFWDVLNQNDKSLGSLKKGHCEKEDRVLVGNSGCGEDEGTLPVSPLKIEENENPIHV

Key:
StITPK1 [1] = target: T1, StITPK1 (Solanum tuberosum, UniProt A4H2J0); experiment: Fluorescence polarization displacement of 2-FAM-InsP5; format: binding; settings: read-out: Ki for displacement of 2-FAM-InsP5; 2 nM 2-FAM-InsP5, 50 nM StITPK1, pH 6.5; Cheng-Prusoff with Kd 48 nM
Description: To determine the relative strengths of binding of different inositol phosphate and inositol pyrophosphate substrates of StITPK1 we undertook fluorescence polarization experiments with 2-FAM-InsP5 [35]. […] A saturation curve for binding of 2-FAM-InsP5 to StITPK1 is shown (Figure S5) and displacement curves are shown for diverse inositol phosphates (Figure 2). The structures of these compounds are shown (Figure S1). […]
Fluorescence polarization (anisotropy)
A curve for binding of 2-FAM-InsP5 to StITPK1 was obtained by incubation of 2 nM 2-FAM-InsP5 [1] with increasing concentration (1-500 nM) of StITPK1 in 20 mM HEPES pH 6.5, 1 mM EDTA, 100 mM NaCl, after. Thereafter, displacement assays were performed by titration of inositol phosphate, inositol pyrophosphate […]
or analog thereof with 2 nM 2-FAM-InsP5 and 50 nM StITPK1. Compounds were tested for displacement in a range of 1 nM - 50 µM. Fluorescence polarization was measured in 384-well, black, low-binding plates, Corning product 3573. Binding and displacement curves (anisotropy) were log transformed and fitted to a 4-parameter logistic (in GraphPad Prism v.6 software (GraphPad Software Inc., San Diego, USA). Fitting of the […]
binding of 2-FAM-InsP5 to a specific one-site binding model in GraphPad Prism yielded a Kd of 48 nM.
Substituting the value of Kd for KM in the Cheng-Prusoff equation for competitive inhibition: […]

StITPK1 [2] = target: T1, StITPK1; experiment: Kinase assay with ATP, HPLC of products; format: biochemical
Protocol: Kinase assays were performed with ATP-regeneration as described for ATP-grasp kinases ITPK1/2 and VIH1/2 [2-3, 27-29], here in 20 mM HEPES pH 6.5, 1 mM MgCl2, 0.5 mM ATP and 1 mM inositol phosphate substrate. The low rate constants for phospho-kinase activity and the low sensitivity of NMR, PAGE and HPLC […]
assays demand long incubation times with high, but non-inhibitory concentrations of phospho-kinase substrates […]
[2-3, 27-29], here with or without 4 µM protein for 3h or 12h at 25 °C. Competition/inhibition assays were […]
performed under ATP-regenerating conditions with 0.5 mM ATP, 1 mM substrate, either Ins(1,2,3,4,5)P5 or […]
InsP6, and competitor, typically 0.5 mM, incubated with or without 3 µM protein for 2 h at 25 °C . […]
0.5 mM inositol pyrophosphate substrate incubated with 4 µM protein at 25 °C . HPLC analysis and detection of inositol phosphates by complexation with ferric ion was performed as described. Peak area data were analysed with the chromatography Jasco ChromNav v.2 software and x,y data were imported into GraphPad Prism v.6 software (GraphPad Software Inc., San Diego, USA) for plotting of chromatograms without additional processing of the data. […]

StITPK1 [3] = target: T1, StITPK1; experiment: Competition/inhibition of Ins(1,2,3,4,5)P5 5-phospho-kinase activity, HPLC; format: biochemical; settings: 0.5 mM competing substrate/inhibitor, 1 mM Ins(1,2,3,4,5)P5, 3h experiment

O=C(CP(=O)(O)O)OC1C(OP(=O)(O)O)C(OP(=O)(O)O)C(OP(=O)(O)O)C(OP(=O)(O)O)C1OP(=O)(O)O (centres unmarked)
Ki (StITPK1 [1]): 300 nM
Product formation (3h) (StITPK1 [2]; 1 mM substrate, 3h, 25°C): 0 μM/μM protein
Product formation (12h) (StITPK1 [2]; 1 mM substrate, 12h, 25°C): 9 μM/μM protein
kinase substrate status (StITPK1 [2]; with ATP, HPLC): very weak substrates
% inhibition at 3h, Ins(1,2,3,4,5)P5 substrate (StITPK1 [3]): 42%

The structures given here were assigned with low confidence; some may be wrong.
